# Measured values as given in the supplement of paper PMC11732987, “Enantioselective OTUD7B fragment discovery through chemoproteomics screening and high-throughput optimisation” (Communications Chemistry, 2025).
# The chains behind the UniProt entries cited, without tags or fusion partners. Where a name states a change or a piece, a line headed by the entry shows the natural chain unless it says otherwise.
# UniProt O94901: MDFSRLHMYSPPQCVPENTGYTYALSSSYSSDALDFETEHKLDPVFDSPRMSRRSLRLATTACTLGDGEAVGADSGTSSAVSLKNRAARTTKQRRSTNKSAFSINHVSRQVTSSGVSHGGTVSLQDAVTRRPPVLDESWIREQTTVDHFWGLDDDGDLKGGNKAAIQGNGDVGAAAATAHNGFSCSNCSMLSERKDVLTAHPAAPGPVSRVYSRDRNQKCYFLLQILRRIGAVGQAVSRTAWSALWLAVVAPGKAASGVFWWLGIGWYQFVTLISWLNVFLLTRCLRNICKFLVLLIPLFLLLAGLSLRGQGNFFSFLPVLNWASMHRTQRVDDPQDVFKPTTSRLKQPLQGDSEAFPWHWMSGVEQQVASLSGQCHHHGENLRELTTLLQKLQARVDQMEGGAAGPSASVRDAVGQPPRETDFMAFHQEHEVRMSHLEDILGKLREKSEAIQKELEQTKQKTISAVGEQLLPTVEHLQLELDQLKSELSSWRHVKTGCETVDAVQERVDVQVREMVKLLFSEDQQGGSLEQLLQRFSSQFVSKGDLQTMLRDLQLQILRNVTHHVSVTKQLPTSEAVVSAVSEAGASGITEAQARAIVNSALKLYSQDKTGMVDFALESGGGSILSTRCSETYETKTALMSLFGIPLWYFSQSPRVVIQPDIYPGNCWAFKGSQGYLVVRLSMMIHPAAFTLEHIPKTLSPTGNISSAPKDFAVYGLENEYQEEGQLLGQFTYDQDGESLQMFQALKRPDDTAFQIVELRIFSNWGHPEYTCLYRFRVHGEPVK
# The other results are listed elsewhere or left out. The data scatter; read single values as rough.
# Target: T1, SUN1 C63 (UniProt O94901)
# T1 sequence (whole entry): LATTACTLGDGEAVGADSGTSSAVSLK
# Assay: log2 mean competition ratio of IA-DTB cysteine labelling (DMSO/compound) (log2 ratio); higher = stronger cysteine engagement by compound
# Settings: 50 µM; treatment time: 4 h; cell line lysate: HEK293T
# Procedure: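 IA-DTB competitive cysteine chemoproteomics in HEK293T RIPA lysate. Lysates were treated with compound 29 or 30 at 50 or 200 µM for 4 h, then IA-DTB (500 µM, 1 h), trypsin-digested, NeutrAvidin-enriched and analysed by diaPASEF. Competition ratio = intensity DMSO / intensity compound (n=4 treated, n=64 DMSO); binding: mean log2 CR ≥ 1 and p ≤ 0.05 plus QC filters. Target is the cysteine site.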
row,SMILES,log2 mean competition ratio
1,O=C(CCl)N[C@@H]1CCCc2ccccc21,-0.231
2,O=C(CCl)N[C@H]1CCCc2ccccc21,0.15

# Same assay, conditions: 200 µM; treatment time: 4 h; cell line lysate: HEK293T
row,SMILES,log2 mean competition ratio
1,O=C(CCl)N[C@@H]1CCCc2ccccc21,-0.528
2,O=C(CCl)N[C@H]1CCCc2ccccc21,-0.319
